Experimental data as given in publication PMC3411835.
No constants are given. Whether binding was seen depends on the method and setting. Binding seen in cells or lysates may run through a third protein. Here binding means that the protein was enriched with, or labelled near, the bait; the list need not be complete. Values belong to the molecule of their own block, whether it stands above or below them.

By UniProt entry, the sequences of proteins in these tests, tags left out. Residues count along the entry.
UniProt P15812, residues 32-388: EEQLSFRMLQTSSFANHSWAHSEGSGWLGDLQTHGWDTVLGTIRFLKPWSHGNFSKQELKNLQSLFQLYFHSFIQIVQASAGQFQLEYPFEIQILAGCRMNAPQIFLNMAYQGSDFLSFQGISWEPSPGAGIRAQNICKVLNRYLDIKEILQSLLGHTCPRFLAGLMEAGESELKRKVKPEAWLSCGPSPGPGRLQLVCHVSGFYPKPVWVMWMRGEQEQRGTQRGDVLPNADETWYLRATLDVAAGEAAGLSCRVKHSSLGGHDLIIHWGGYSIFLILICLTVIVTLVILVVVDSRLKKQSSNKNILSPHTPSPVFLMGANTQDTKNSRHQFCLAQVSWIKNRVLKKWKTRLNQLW
UniProt P22061: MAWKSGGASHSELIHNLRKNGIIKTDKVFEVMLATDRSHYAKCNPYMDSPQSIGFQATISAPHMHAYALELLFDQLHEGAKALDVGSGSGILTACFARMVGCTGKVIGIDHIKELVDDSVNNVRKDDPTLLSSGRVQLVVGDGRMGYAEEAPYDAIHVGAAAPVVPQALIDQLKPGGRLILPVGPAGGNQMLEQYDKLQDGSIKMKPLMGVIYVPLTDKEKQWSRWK

Biological target: CD1e (transgenic, expressed in M10 melanoma cells) (human) (UniProt P15812)
Test: affinity purification with mass spectrometry; M10 cells expressing CD1e or untransfected, 5 h bafilomycin; 1% Triton X-100, 150 mM NaCl, 20 mM Tris pH 8 lysate; CD1e immunoadsorbed on immobilised cross-linked mAb 20.6; SDS-PAGE, gel sections around 27 kD, trypsin, LC/MS/MS

- binding: binds
Molecule: L-isoaspartate O-methyltransferase (encoded by PCMT1) (from UniProt P22061 1-227)

- binding: binds
B1: lysosomal-associated transmembrane protein 5 (LAPTM5), endogenous in M10 cells (protein, UniProt Q13571 1-262)
chain: MDPRLSTVRQTCCCFNVRIATTALAIYHVIMSVLLFIEHSVEVAHGKASCKLSQMGYLRIADLISSFLLITMLFIISLSLLIGVVKNREKYLLPFLSLQIMDYLLCLLTLLGSYIELPAYLKLASRSRASSSKFPLMTLQLLDFCLSILTLCSSYMEVPTYLNFKSMNHMNYLPSQEDMPHNQFIKMMIIFSIAFITVLIFKVYMFKCVWRCYRLIKCMNSVEEKRNSKMLQKVVLPSYEEALSLPSKTPEGGPAPPPYSEV
